# Results published in PubChem BioAssay AID1347423 (Functional Genomics Laboratory (NCATS/FGL), 2020).
# Screen size: about 52,000 sequences; about 210 (0.4%) were called active.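 How the source made its calls: active means gene whose silencing raises cell survival under the drug, median off-target-corrected z-score across its silencing RNAs 2 or more; inactive means the rest.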 This is one part of the list.
# Test: Resistance to Poly (ADP-Ribose) Polymerase inhibitor: Gene Identification via Genome-wide siRNA Screen
# Conditions: mouse BRCA2 R2336H ES cells, olaparib, CellTiter-Glo viability; active compounds read high
# In short: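 Genome-wide siRNA screen (3 siRNAs/gene, 20 nM) in mouse ES cells carrying hypomorphic BRCA2 R2336H; olaparib 500 nM added 48 h post-transfection, CellTiter-Glo viability 72 h later. Normalized to plate-median negative control; MAD z-scores, gene median, seed-adjusted.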
row,Sequence,z-score
1,GGUCAGGAAAUAUUCUUAATT against A630001G21Rik,inactive: -0.863
2,GAUAUACAGCAUACUCUCATT against Olfr1087,inactive: -0.717
3,CCAAUGAAACCUGCUUGGGTT against Cd200r2,inactive: -0.0211
4,CCUAUGGAGAGUAUGACUATT against Khdrbs3,inactive: 1.17
5,GGCCUGAACCUCUUUCAAGTT against Mep1a,inactive: -0.559
6,CGAGUCUUGUGGAGUUUCGTT against Spint2,inactive: -0.597
7,GGCUUCUAAGCAUACUCAGTT against D6Ertd349e,inactive: -2.21
8,GUGAUGACUGAGCUUCUAATT against Olfr1446,inactive: -1.51
9,GCUUGUUGAUCAAUAACCCTT against Cntn4,inactive: -0.00874
10,CCAACACGACGCAGGAAAUTT against Nr0b1,inactive: 1.9
11,GGGCUCACAUUGUACACACTT against D130011D22Rik,inactive: -0.224
12,GGAAAUAGAGGGAGAAUAATT against A730037C10Rik,inactive: -1.88
13,GGGAGAUGAAGAACUAUGUTT against Hmgb2,inactive: -2.56
14,GGAUUUUGACAACAUCUCCTT against Pak7,inactive: 0.0926
15,GGAGCAGCAGAAGGUUCUUTT against Olfr434,inactive: -1.29
16,GGAUGGUAGAGUUCCUUUGTT against 5830457H20Rik,inactive: 0.644
17,CGCAAAGACUUAUAUUGAGTT against AI851076,inactive: -0.859
18,GCGUUAUAGCCUCAGUGUGTT against Olfr605,inactive: 0.554
19,GGUGACAUGCUGAUUGUUGTT against 9930028C20Rik,inactive: -0.512
20,GGCCUAUGCACAACUGAAGTT against Slc6a19,inactive: -2.64
21,GGAGUGAAAUAUGGAGUUGTT against BC003479,inactive: 0.573
22,GGCCAGCGAGAGAGAGAAATT against Msgn1,inactive: -1.97
23,GGAUUAAACAAGAACAAGATT against Cnksr2,inactive: 0.525
24,GGUCGUUUCUAUGAUUGGCTT against Olfr589,inactive: -0.857
25,CCCUUAUCAUCGUCAAUAGTT against Rga,inactive: -0.761
26,GGAGAAAUUGCCUUUGAUCTT against BC027088,inactive: 0.0838

# Looked up above:
# Entry for GCUUGUUGAUCAAUAACCCTT against Cntn4 under z-score: inactive: -0.00874
# Entry for GGGAGAUGAAGAACUAUGUTT against Hmgb2 under z-score: inactive: -2.56
# Entry for CCAAUGAAACCUGCUUGGGTT against Cd200r2 under z-score: inactive: -0.0211

# (cont.)

row,Sequence,z-score
1,GCAAGCUAAUGAGCUACAATT against AA175286,inactive: -0.292
2,GGCGCAUAGGAAUGUGCUUTT against Mynn,inactive: -0.625
3,GGAGACCUAAAGAUGAUCATT against Mmab,inactive: 0.19
4,GCAUUGUGUGGUUUUGCCATT against Myog,inactive: 0.437
5,CGACAAGCUGUACCUCUACTT against Rfx5,inactive: -0.254
6,GGCUUUAAAGAAUGAUUCATT against 4933411K20Rik,inactive: -0.0501
7,GGAUAUGUCGGAAAAAGCCTT against Cfh,inactive: -0.27
8,GGAUUUCAUUGGGUUUCUUTT against 2310001A20Rik,inactive: -0.427
9,GCGACUGUGGUGGUUACAUTT against Bcas2,inactive: -0.0243
10,GUUGUGUUCUGAUUGUUUUTT against Olfr1020,inactive: 0.0983
11,GCUUCAUGAUGAAUCACCUTT against BC052328,inactive: 1.05
12,GGCUGACUUAUUUCAUUAATT against Dexi,inactive: 1.25
13,GCCCGAAGUCCAUGAUAUUTT against Ppm1a,inactive: 0.809
14,CGAGACACGUAGUGAAAGATT against Chrna5,inactive: -1.59
15,GGUGCUGAAUUUGAUCAAGTT against Rpa2,inactive: -3.41
16,GAAAUCGGCUCAGACAUUUTT against Ssbp2,inactive: -0.456
17,GCUACACACGAUUUCAUUCTT against Dolpp1,inactive: 0.785
18,GGAGUUUUAUGGACGAGGATT against 1110060M21Rik,inactive: 2.08
19,GCCUUGUGACAGCAUUAGUTT against Slc6a13,inactive: 0.566
20,GGUUUUGUCCAGAAGAAUATT against Kl,inactive: 0.691
21,GGCUUGUUUGAUGUUUGCATT against Ldh2,inactive: 0.635
22,GGGAUGGUUCCAUUACUUUTT against Rhcg,inactive: 2.3
23,GGCUCUGGAUUACAUAGCCTT against Actn2,inactive: -0.294
24,CCCUAGCGGAAAUUGUCAATT against Nono,inactive: 0.00602
25,CCACGUUACAACAUCACCUTT against Hdac11,inactive: -0.249
26,GGCUUGGAUCUUGAGCAGATT against Magea6,inactive: -0.944

row,Sequence,z-score
1,CCCUUAUUGCUAGACCUAGTT against Map3k11,inactive: -0.0454
2,CCACCGACUUCUUUUACCCTT against Sephs2,inactive: -0.299
3,CCUCAUAGGCUUGACAAUUTT against Sec5l1,inactive: -0.317
4,CCUGGUUAUCCAUUAGUGGTT against Tatdn2,inactive: -2.34
5,GGCAAGAAAGUCAUUAGCUTT against Mocs2,inactive: -0.567
6,GGAGAAGAAGCUGGACCAGTT against Atp5o,inactive: 0.29
7,CCGAUGUCUGAUAGUACAUTT against C3ar1,inactive: -1.17
8,GGGAAUAAAAAGGAUCACUTT against Rab39,inactive: 0.657
9,GGAUCAUAAAAAGAAUCACTT against Gpr21,inactive: 0.833
10,GGGAUUACCUCCAGACACATT against 0610010D24Rik,inactive: 1.42
11,CCAGGUGAGGUUGCUUAACTT against Bri3bp,inactive: -0.234
12,GGGUUGAAAAGAGGUGUCUTT against Cacng8,inactive: -0.946
13,CCCAGCAACUACUGGAAACTT against Tas2r139,inactive: -0.186
14,CCAGUCUUGCCCUUUAGUGTT against B130055A05Rik,inactive: -1.05
15,GGACUUCCAGAGGUACUUGTT against V1re1,inactive: 1.62
16,GCAUUUGUGGCCUAUGCUCTT against 9130210N20Rik,inactive: 0.687
17,GCUAGAAUACACCAUAGAGTT against A930012M17,inactive: 1.4
18,GGAUAUUCACUUUCAUAUGTT against Gulp1,inactive: 0.648
19,GGACAGUGAAGAGGAUUCCTT against 3200002M19Rik,inactive: -1.03
20,GGUCCUGUGAGUCAUUUGATT against Mrps34,inactive: -0.116
21,GGUUGUGAAUGUAAGUGAGTT against Entpd1,inactive: 0.934
22,GGUUCCAUAACCUGUGUCATT against D1Ertd578e,inactive: -0.506
23,CCGUCGUUUUGGCCAGUAATT against Tex101,inactive: -1.56
24,GCAUACCGGUGUGUCAGUGTT against Lamp1,inactive: -1.26
25,GGUAGAAGAUGAUUACAUCTT against Spock2,inactive: 0.457
26,GCAUCAAACACUAGGGCAATT against Gpr33,inactive: -0.792

# As a short view, part of the list above:
row,Sequence,z-score
17,GCUAGAAUACACCAUAGAGTT against A930012M17,inactive: 1.4
18,GGAUAUUCACUUUCAUAUGTT against Gulp1,inactive: 0.648
19,GGACAGUGAAGAGGAUUCCTT against 3200002M19Rik,inactive: -1.03
20,GGUCCUGUGAGUCAUUUGATT against Mrps34,inactive: -0.116
21,GGUUGUGAAUGUAAGUGAGTT against Entpd1,inactive: 0.934

# More records:

row,Sequence,z-score
1,GCAACACCAGAGUAUGUUATT against LOC238829,inactive: -0.629
2,GGUCCGAAAUGAGUUUUACTT against C330021A05Rik,inactive: 3.82
3,GCGCGCAUUAACUACACGUTT against Zfp82,inactive: -0.204
4,GGAAGAGGAAUAUUACCAGTT against Marveld3,inactive: 0.0116
5,CGUAGGACAAAUUAUACCATT against Gria3,inactive: -0.234
6,GGUUUCAGAAAAUCAACCATT against 1700111A04Rik,inactive: 0.656
7,CCCAAGGUACAUUUUUCAATT against Mab21l2,inactive: -0.405
8,GCUAACUGAUGCUAAAGGATT against Dnajd1,inactive: -0.121
9,CGAGUUAUUCUUGUUAUAGTT against V1rd13,inactive: 0.816
10,GGGCUAUAUGGAUUUAAUGTT against Txnl1,inactive: -0.526
11,GCAAUUUUAGUUGGUGGAATT against Ddx24,inactive: -1.56
12,CCGCUUGGGAUUAGCUAUGTT against Olfr543,inactive: -0.0531
13,CGGAACUACCGCUUCUUUUTT against Zdhhc18,inactive: 0.786
14,GGCAAUAAGCCCUUCACAATT against Pqlc2,inactive: 1.02
15,GCUAUAGAUUCCUCUGCCATT against Olfr1098,inactive: -1.45
16,GGUGGAGACUAAUCCAUUATT against A930014I12Rik,inactive: 0.0273
17,GGAGCCAGGAAAAUUUAUGTT against Carm1,inactive: -0.237
18,GGAGCUGAUGGUUGAAUGUTT against Ehbp1,inactive: -1.23
19,GCUGUUAAAACUCUCGUUATT against Pdk3,inactive: 0.651
20,GCUCAUAAAACUCCAAAAGTT against Prei3,inactive: -1.57
21,GGAAAUCCUUACUAUGCAUTT against Enam,inactive: 1.08
22,GGAAAGAAAUGAAUCAGUATT against Ubce7ip1,inactive: -0.084
23,CGACCAGCCAUGGUACAAATT against Ptprd,inactive: 1.79
24,GGUGCUGCUGAGAUUUUUCTT against Pxt1,inactive: -1.09
25,GGCAAGUUUGAGUUUUAGUTT against D730019B10Rik,inactive: 0.161
26,GGUACUUUUACUCCCGAAGTT against Lgals3bp,inactive: 1.25
